# Assay results: PubChem BioAssay AID1347076 (National Center for Advancing Translational Sciences (NCATS), 2019)
# About 13,000 (3.2%) of roughly 400,000 compounds were called active. The inconclusive results got no clear call from the source; some entries with a clear call stand among them for comparison. Calls follow the shape of the dose curve; as a rule, active = well fitted cell-killing curve with a large enough effect; inconclusive = small, poorly fitted or top-dose-only effect, or effect the other way; inactive = flat fitted curve, though single readings scatter. Where the call is inconclusive, the potency comes from a doubtful curve fit.
# Test: qHTS assay for MDR1-selective chemotherapeutics: Primary screen using the drug-selected MDR subline cells KB-V1; also: nearly all actives have a fitted effect of over 60% in size
# Conditions: KB-V1 MDR cells viability, CellTiter-Glo, 72 h; series mostly up to 46.1 µM
# Summary of the method: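 KB-V1 MDR subline cells in DMEM (phenol-red free, 10% FBS) exposed to compounds in qHTS concentration series for 72 h at 37 degrees C. Viability read by CellTiter-Glo luminescence; concentration-effect curves fitted after normalization and correction.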
# Potency is read from the fitted curve at half-maximal effect.
row,Compound,Potency
1,CCc1ccc(C(O)c2ncc(-c3cccc4ccccc34)[nH]2)cc1 (stereo unspecified),inactive
2,CN(C(=O)c1cccc(NC(=O)Cc2cccc(NC(=O)C3CCN(C(=O)CCc4ccccc4)CC3)c2)c1)C1CC1,inactive
3,CCOC(=O)c1oc2ccccc2c1CN1CC(C)OC(C)C1 (stereo unspecified),inactive
4,O=C(Cc1coc2ccc3ccccc3c12)NCc1ccccc1,"inconclusive: 18.4 µM [cytotoxic, single point]"
5,COC(=O)c1ccc(Cl)cc1NC(=O)N1CC2CCCN2c2ccccc21 (stereo unspecified),inactive
6,CCOC(=O)c1csc(NC(=O)CC2CCCC2)n1,"inconclusive: 20.6 µM [cytotoxic, single point]"
7,O=C1C(=O)N(c2ccccn2)C(c2cccc([N+](=O)[O-])c2)/C1=C(/O)c1ccc(Br)cc1 (stereo unspecified),inactive
8,CC1CN(C(=O)c2ccc3c(c2)OCO3)CC(C)O1 (stereo unspecified),"inconclusive: 20.6 µM [rising, partial curve, poor fit]"
9,CC1(c2ccc3ccccc3c2)NC(=O)N(CC(=O)N2CCN(c3ccccc3O)CC2)C1=O (stereo unspecified),"inconclusive: 20.6 µM [cytotoxic, single point]"
10,O=C(NCCN1CCCCC1)Nc1cccc(C(F)(F)F)c1,inactive
11,CC(=O)c1cc(C#N)c(N2CCOCC2)nc1C,inactive
12,Cc1ccc(NC(=O)/C=C/c2ccco2)nc1,active: 0.103 µM
13,O=C(CN1CCCC1)Nc1sc2c(c1C(=O)Nc1ccccc1)CCCC2,"inconclusive: 0.58 µM [cytotoxic, partial curve, poor fit]"
14,O=C(O)/C=C/c1cnc2ccccc2n1,"inconclusive: 8.2 µM [rising, partial curve]"
15,COc1ccc2c(c1OC)C(=O)N1N=C(c3ccc(Cl)cc3)CC21 (stereo unspecified),"inconclusive: 2.31 µM [cytotoxic, partial curve, poor fit]"
16,O=C(CSc1cccc2cccnc12)N/N=C/c1ccncc1,inactive
17,c1ccc(Cn2nnnc2C(c2cccs2)N2CCCCCC2)cc1 (stereo unspecified),active: 16.4 µM
18,Cc1ccc(C(=O)NCC(=O)NCCSc2ccc(Br)cc2)cc1,"inconclusive: 32.6 µM [cytotoxic, partial curve, poor fit]"
19,COc1ccccc1-c1nn2c(-c3ccco3)nnc2s1,active: 10.3 µM
20,CCn1cc(Br)c(-c2nc3ccccc3c(=O)n2N)n1,"inconclusive: 20.6 µM [cytotoxic, single point]"
21,C[C@@H]1CN([C@H](C)CO)C(=O)c2c(c3ccccc3n2C)-c2ccccc2CO[C@H]1CN(C)Cc1ccc(Oc2ccccc2)cc1,"inconclusive: 13 µM [cytotoxic, single point]"
22,CCOC(=O)CN1C(=O)COc2ccc(C(C)(C)C)cc21,"inconclusive: 18.4 µM [cytotoxic, single point]"
23,O=C(NCCCO)c1cc2c([nH]c3ccccc32)c(-c2ccccc2)n1,"inconclusive: 23.1 µM [cytotoxic, single point]"
24,CS(=O)(=O)c1ccc(C(=O)NNC(=O)c2ccccc2-n2cccc2)cc1,"inconclusive: 29.1 µM [rising, single point]"

row,Compound,Potency
1,O=C(NCC1CCCO1)c1cccc2c1C(=O)c1ccc(N3CCC(Cc4ccccc4)CC3)cc1S2(=O)=O (stereo unspecified),active: 23.1 µM
2,O=C(CN1C(=O)COc2ccccc21)c1cccc(Cl)c1,"inconclusive: 29.1 µM [cytotoxic, single point]"
3,Cc1ccc(NC(=O)C(=O)NCC(c2cccnc2)N2CCN(Cc3ccccc3)CC2)cc1C (stereo unspecified),inactive
4,COc1ccccc1OCCn1c(NC(=O)c2ccccc2Cl)nc2ccccc21,inactive
5,CC1CCN(C(=S)c2cn(Cc3ccccc3F)c3ccccc23)CC1,"inconclusive: 16.4 µM [cytotoxic, single point]"
6,COc1ccccc1-n1nnnc1S(=O)(=O)Cc1ccc(Cl)cc1,"inconclusive: 29.1 µM [cytotoxic, single point]"
7,O=Cc1ccc(N2CCCC2)c([N+](=O)[O-])c1,inactive
8,Cc1ccc2c(c1)[C@H]1[C@H](CO2)[C@H](c2ccccc2)[C@]2(C)C(=O)Nc3ccc(Cl)cc3C(=O)N12,"inconclusive: 20.6 µM [cytotoxic, single point]"
9,O=C(CN1c2cccc3cccc(c23)S1(=O)=O)NC1CCCCC1,active: 20.6 µM
10,O=c1cc(-c2ccccc2)[nH]n1-c1nc2ccccc2[nH]1,"inconclusive: 14.1 µM [cytotoxic, partial curve]"
11,Cc1ccc(N/C(=C\C(=O)c2ccccc2)C(=O)O)cc1,"inconclusive: 29.1 µM [cytotoxic, single point]"
12,COc1ccc(CN(C)C(=O)c2ccc(Oc3ccccc3)cc2)cc1F,"inconclusive: 0.0259 µM [cytotoxic, full curve]"
13,O=C(c1ccco1)N(Cc1ccc([N+](=O)[O-])cc1)c1ccc(Br)cc1,"inconclusive: 18.4 µM [cytotoxic, single point]"
14,COc1ccc2nc(/N=C(\N)NC(=O)N3c4ccccc4Sc4ccccc43)nc(C)c2c1,"inconclusive: 10.3 µM [cytotoxic, partial curve]"
15,CC(/C=N/n1c(-c2cc(C)[nH]n2)n[nH]c1=S)=C\c1ccccc1,"inconclusive: 20.6 µM [rising, single point]"
16,Cc1ccc2[nH]ccc(=O)c2c1,inactive
17,CNc1cncc(-c2ccc(NS(C)(=O)=O)cc2)n1,active: 5.17 µM
18,CCc1ccc(CN2C(=O)c3ccccc3C2C(=O)NC2CCCCCC2)cc1 (stereo unspecified),inactive
19,CC1(c2ccc(Cl)cc2)NC(=O)N(CC(=O)N2CCc3ccccc32)C1=O (stereo unspecified),"inconclusive: 10.3 µM [cytotoxic, partial curve, poor fit]"
20,Cc1ccc(Cl)cc1-c1cc(C(=O)NCc2cc(C(F)(F)F)cc(C(F)(F)F)c2)[nH]n1,"inconclusive: 20.6 µM [cytotoxic, single point]"
21,O=C(NCc1ccccc1)C1CCCN(c2cnccn2)C1 (stereo unspecified),"inconclusive: 13 µM [rising, partial curve]"
22,COc1ccc(C(=O)/C(C#N)=N/Nc2ccc([N+](=O)[O-])cc2)cc1,active: 8.2 µM
23,CCOC(=O)NC(Nc1cc(C)ccn1)(C(F)(F)F)C(F)(F)F,"inconclusive: 13 µM [rising, single point]"
24,COc1ccccc1OCc1nc2ccccc2[nH]1,"inconclusive: 18.4 µM [cytotoxic, single point]"

row,Compound,Potency
1,CN(Cc1ccccc1)C(=O)c1[nH]c(C(F)(F)F)nc1-c1ccccc1,inactive
2,Cc1ccccc1N1CCN(C2CCCN(C(=O)c3csc(C(C)C)n3)C2)CC1 (stereo unspecified),inactive
3,CCOc1ccccc1N1CCN(S(=O)(=O)c2cc(C)ccc2OC)CC1,"inconclusive: 29.1 µM [cytotoxic, single point]"
4,CCc1nc2c(OCc3cc(Cl)cc(Cl)c3)cccn2c1N(C=O)Cc1ccc(OC)cc1,"inconclusive: 29.1 µM [cytotoxic, single point]"
5,Cc1ccc(C)c(N2CCN(C(=O)c3ccc(N4CCOCC4)c([N+](=O)[O-])c3)CC2)c1,inactive
6,COc1ccccc1CN1CC(C(=O)N(C)CCc2nc3ccc(F)cc3[nH]2)CCC1=O (stereo unspecified),"inconclusive: 29.1 µM [rising, single point]"
7,CCc1ccccc1Nc1nn2c(=O)c3ccc(C(=O)NC4CCC(C)CC4)cc3nc2s1 (stereo unspecified),inactive
8,COc1ccc([C@H]2N[C@]3(CCCN(Cc4ccc(C)cc4)C3=O)[C@H]3C(=O)N(C)C(=O)[C@@H]23)cc1,"inconclusive: 14.6 µM [cytotoxic, partial curve]"
9,O=C(NCCC(=O)N1CCN(c2ccccn2)CC1)c1ccc(Cl)cc1,inactive
10,COc1ccc(CCNC(=O)CCCn2c(=O)c3ccccc3n(CC(=O)Nc3cccc(C)c3)c2=O)cc1OC,inactive
11,CCn1ccc2c(OCC(=O)NCCc3ccc(OC)c(OC)c3)cccc2c1=O,"inconclusive: 8.2 µM [cytotoxic, partial curve, poor fit]"
12,COc1ccc(CC2(CO)CCN(S(=O)(=O)c3sccc3C)CC2)cc1,"inconclusive: 29.1 µM [cytotoxic, single point]"
13,COc1ccc(C2=NN(C(=O)CSc3cn(C)c4ccccc34)C(c3ccc(OC)cc3)C2)cc1 (stereo unspecified),"inconclusive: 18.4 µM [cytotoxic, single point]"
14,Cc1cc(Cl)ccc1C(=O)C1CCCN(C(=O)c2ccsc2)C1 (stereo unspecified),"inconclusive: 10.3 µM [cytotoxic, partial curve]"
15,Cn1nnnc1SCCNCc1cc(Cl)ccc1OCc1ccccc1,active: 5.17 µM
16,CCCc1c(-c2cccc(Cl)c2)ncn1Cc1ccccc1OC,active: 16.4 µM
17,CN(C)c1nnnn1-c1ccc(Oc2ccccc2)cc1,"inconclusive: 20.6 µM [cytotoxic, single point]"
18,Cc1ccc(-n2c(SCC(=O)Nc3ccc4c(c3)OCO4)nnc2-c2cccs2)cc1,"inconclusive: 18.4 µM [cytotoxic, single point]"
19,CCOC(=O)c1sc2nc(CC(=O)OC)nc(NCc3ccco3)c2c1C,active: 3.26 µM
20,COc1ccccc1CNc1ccc(-c2nc(-c3ccccn3)no2)cc1[N+](=O)[O-],inactive
21,COc1ccc(Nc2c3c(nc4ccccc24)CCCC3)cc1OC,"inconclusive: 14.6 µM [cytotoxic, partial curve]"
22,Cn1cc(C(=O)c2ccc(Cl)cc2Cl)cc1C(=O)N/N=C(\N)COc1ccccc1,"inconclusive: 23.1 µM [cytotoxic, single point]"
23,Cc1ccc(C(=O)c2cc([N+](=O)[O-])ccc2N2CCCCC2)cc1C,active: 5.8 µM

# Of the compounds above, two contain two or more sulfur atoms:
row,Compound,Potency
12,COc1ccc(CC2(CO)CCN(S(=O)(=O)c3sccc3C)CC2)cc1,"inconclusive: 29.1 µM [cytotoxic, single point]"
18,Cc1ccc(-n2c(SCC(=O)Nc3ccc4c(c3)OCO4)nnc2-c2cccs2)cc1,"inconclusive: 18.4 µM [cytotoxic, single point]"
